Laboratory results reported in publication PMC10036488.
Results are given in words; binding and its absence hold for the method and conditions named. Binding seen in cells or lysates may run through a third protein. These calls come from enrichment with a bait or labelling near it, and not all partners need be listed. Sequences can lack the tags named with a protein.

T1: CASP1-sGFP-TurboID (pCASP1::CASP1-sGFP-TurboID) (Arabidopsis thaliana) (UniProt Q9SIH4)
T1 sequence: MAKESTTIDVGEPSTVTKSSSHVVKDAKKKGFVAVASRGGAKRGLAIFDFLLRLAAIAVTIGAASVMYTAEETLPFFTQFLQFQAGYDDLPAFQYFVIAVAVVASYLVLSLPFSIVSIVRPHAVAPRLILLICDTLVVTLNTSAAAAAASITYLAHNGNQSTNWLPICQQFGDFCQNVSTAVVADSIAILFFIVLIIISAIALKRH

B1: CASP2 (protein, UniProt Q9CAX3 1-204)
chain: MKNESTFIDVPAESSSAMKGKAPLIGVARDHTTSGSGGYNRGLAIFDFLLRLAAIVAALAAAATMGTSDETLPFFTQFLQFEASYDDLPTFQFFVIAMALVGGYLVLSLPISVVTILRPLATAPRLLLLVLDTGVLALNTAAASSAAAISYLAHSGNQNTNWLPICQQFGDFCQKSSGAVVSAFVSVVFFTILVVISGVALKRH
B2: CASP3 (protein, UniProt Q9ZQI2 1-221)
chain: MDIEKAGSRREEEEPIVQRPKLDKGKGKAHVFAPPMNYNRIMDKHKQEKMSPAGWKRGVAIFDFVLRLIAAITAMAAAAKMATTEETLPFFTQFLQFQADYTDLPTMSSFVIVNSIVGGYLTLSLPFSIVCILRPLAVPPRLFLILCDTVMMGLTLMAASASAAIVYLAHNGNSSSNWLPVCQQFGDFCQGTSGAVVASFIAATLLMFLVILSAFALKRTT
B3: CASP4 (protein, UniProt Q9FFZ7 1-202)
chain: MKSDSIAVDVPAESSSVIKGKAPLLGLARDHTGSGGYKRGLSIFDFLLRLAAIVAALAAAATMGTSDETLPFFTQFLQFEASYDDLPTFQFFVVAIAIVAGYLVLSLPFSVVTIVRPLAVAPRLLLLVLDTAALALDTAAASAAAAIVYLAHNGNTNTNWLPICQQFGDFCQKTSGAVVSAFASVTFLAILVVISGVSLKRP

What follows are binders tested against T1, CASP1-sGFP-TurboID (pCASP1::CASP1-sGFP-TurboID) (Arabidopsis thaliana) (assay: proximity labelling; TurboID fused to CASP1 (pCASP1::CASP1-sGFP-TurboID) in Arabidopsis roots; 50 µM biotin for 24 h at 28 °C; RIPA extract, streptavidin beads, LC-MS/MS, three biological replicates; compared with cyto-tID, PM-tID and CASP1-GFP controls).
In the case of B1, the binding is reported as “binds”.
In the case of B2, the binding is reported as “binds”.
With B3 the binding was “binds”.
